No constants are given. Whether binding was seen depends on the method and setting. Binding seen in cells or lysates may run through a third protein. A yes stands for co-enrichment or nearness to the bait. Other partners may have been found.

In the assay the target is T1, CD63 (mouse (endogenous in hippocampo-septal synaptosomes and in primary hippocampal neurons)) (UniProt P41731).
T1 sequence: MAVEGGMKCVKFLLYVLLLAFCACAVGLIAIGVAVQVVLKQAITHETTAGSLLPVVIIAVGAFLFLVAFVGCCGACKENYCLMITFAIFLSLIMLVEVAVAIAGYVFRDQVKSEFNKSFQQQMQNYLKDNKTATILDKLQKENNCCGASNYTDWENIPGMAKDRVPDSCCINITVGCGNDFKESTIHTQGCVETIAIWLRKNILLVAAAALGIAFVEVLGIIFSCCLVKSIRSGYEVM
The experiment in a line: affinity purification with mass spectrometry; 3 µg anti-CD63 (Sicgen) with 0.5 mg/ml hippocampo-septal synaptosomal lysate of 6-month-old WT and 5xFAD mice, overnight at 4 °C, Dynabeads Protein G, washed with Syn-PER reagent, eluted in 8 M urea lysis buffer, LC-MS/MS; abundance compared between 5xFAD and WT.

B1: charged multivesicular body protein 3 (Chmp3) (protein, UniProt Q9CQ10 1-224)
chain: MGLFGKTQEKPPKELVNEWSLKIRKEMRVVDRQIRDIQREEEKVKRSVKDAAKKGQKEVCVVLAKEMIRSRKAVSKLYASKAHMNSVLMGMKNQLAVLRVAGSLQKSTEVMKAMQSLVKIPEIQATMRELSKEMMKAGIIEEMLEDTFESMDDQEEMEEAAEMEIDRILFEITAGALGKAPSKVTDALPEPEPAGAMAASEEGEEEEDEEDLEAMQSRLATLRS
For B1, the binding result is “binds”.

The values are drawn from publication PMC10478284.
